# Source: publication PMC3846889
# The chains behind the UniProt entries cited, without tags or fusion partners. Residues count along the entry.
# UniProt O95925, residues 22-133: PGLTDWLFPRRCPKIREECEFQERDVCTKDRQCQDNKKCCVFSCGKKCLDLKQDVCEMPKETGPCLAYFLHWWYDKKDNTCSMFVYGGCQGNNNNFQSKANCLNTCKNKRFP
# recombinant SEMG1^74-42 (residues R165-R281) (P04279, residues 165-281): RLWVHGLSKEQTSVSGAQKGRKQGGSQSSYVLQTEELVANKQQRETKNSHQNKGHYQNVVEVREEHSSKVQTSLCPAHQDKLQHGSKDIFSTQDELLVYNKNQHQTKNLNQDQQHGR
# recombinant SEMG1^74-8 (residues R165-Q247) (P04279, residues 165-247): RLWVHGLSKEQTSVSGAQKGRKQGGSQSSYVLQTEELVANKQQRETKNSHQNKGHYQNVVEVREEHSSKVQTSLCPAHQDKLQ
# recombinant SEMG1^32-42 (residues Q207-R281) (P04279, residues 207-281): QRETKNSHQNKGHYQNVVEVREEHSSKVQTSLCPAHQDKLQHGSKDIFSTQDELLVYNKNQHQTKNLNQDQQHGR
# These are yes or no findings as the source states them, for the method shown. Some results given as binding are weak or reduced against the parent protein; the word gives no strength.
# Target: human recombinant EPPIN (residues P22-P133) (human) (UniProt O95925)
# Assay: AlphaScreen or HTRF; direct binding, concentration-response: EPPIN (29 nM) on anti-EPPIN Q20E antibody (2 nM) and Protein A acceptor beads; His-tagged SEMG1 construct (0.04-7.5 µM) on Ni-NTA-chelate donor beads; 10 µg/ml beads, 30 µl; EC50 from the specific signal after 16 h; both purified
row,binding,Substance
1,binds,recombinant SEMG1^74-8 (residues R165-Q247) (from UniProt P04279-1 165-247) (domain or fragment)
2,binds,recombinant SEMG1^74-42 (residues R165-R281) (from UniProt P04279-1 165-281) (domain or fragment)

row,Substance,binding
1,recombinant SEMG1^32-42 (residues Q207-R281) (from UniProt P04279-1 207-281) (domain or fragment),no binding (tested: 0.04-7.5 µM SEMG1 tested)
